Binding data for one molecule are collected here from article PMC5177601.

Results are given in words; binding and its absence hold for the method and conditions named. Binding seen in cells or lysates may run through a third protein. These calls come from enrichment with a bait or labelling near it, and not all partners need be listed.

The target in this assay is T1, FOXA1 (Forkhead box protein A1) (human (endogenous in MCF-7)) (UniProt P55317).
T1 sequence: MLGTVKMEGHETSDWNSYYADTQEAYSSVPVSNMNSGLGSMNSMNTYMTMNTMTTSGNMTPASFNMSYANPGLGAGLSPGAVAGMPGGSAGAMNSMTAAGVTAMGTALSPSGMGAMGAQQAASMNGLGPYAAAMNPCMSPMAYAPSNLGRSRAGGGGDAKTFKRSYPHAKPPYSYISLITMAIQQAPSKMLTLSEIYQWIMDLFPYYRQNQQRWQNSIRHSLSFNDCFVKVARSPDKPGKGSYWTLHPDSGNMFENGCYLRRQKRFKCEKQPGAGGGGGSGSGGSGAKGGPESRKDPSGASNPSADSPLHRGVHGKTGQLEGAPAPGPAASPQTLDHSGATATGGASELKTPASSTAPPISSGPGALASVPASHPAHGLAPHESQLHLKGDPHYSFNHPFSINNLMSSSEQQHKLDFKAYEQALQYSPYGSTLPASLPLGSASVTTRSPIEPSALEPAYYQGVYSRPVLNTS
In words: affinity purification with mass spectrometry; FOXA1 RIME (rapid immunoprecipitation mass spectrometry of endogenous proteins) in asynchronous MCF-7 cells grown in full media; five replicates; matched IgG control RIME; interactors filtered with the CRAPome database.

B1: grainyhead-like 2 protein (GRHL2) (protein, UniProt Q6ISB3 1-625)
chain: MSQESDNNKRLVALVPMPSDPPFNTRRAYTSEDEAWKSYLENPLTAATKAMMSINGDEDSAAALGLLYDYYKVPRDKRLLSVSKASDSQEDQEKRNCLGTSEAQSNLSGGENRVQVLKTVPVNLSLNQDHLENSKREQYSISFPESSAIIPVSGITVVKAEDFTPVFMAPPVHYPRGDGEEQRVVIFEQTQYDVPSLATHSAYLKDDQRSTPDSTYSESFKDAATEKFRSASVGAEEYMYDQTSSGTFQYTLEATKSLRQKQGEGPMTYLNKGQFYAITLSETGDNKCFRHPISKVRSVVMVVFSEDKNRDEQLKYWKYWHSRQHTAKQRVLDIADYKESFNTIGNIEEIAYNAVSFTWDVNEEAKIFITVNCLSTDFSSQKGVKGLPLMIQIDTYSYNNRSNKPIHRAYCQIKVFCDKGAERKIRDEERKQNRKKGKGQASQTQCNSSSDGKLAAIPLQKKSDITYFKTMPDLHSQPVLFIPDVHFANLQRTGQVYYNTDDEREGGSVLVKRMFRPMEEEFGPVPSKQMKEEGTKRVLLYVRKETDDVFDALMLKSPTVKGLMEAISEKYGLPVEKIAKLYKKSKKGILVNMDDNIIEHYSNEDTFILNMESMVEGFKVTLMEI
With B1, the binding entry is on record as “binds”.
